Test results as given in patent US20160113911A1, “METHODS AND COMPOSITIONS FOR THE TREATMENT OF CANCER” (THE GENERAL HOSPITAL CORPORATION, priority 2013, published 2016).

B1: 2A-D524V: KDM4A mutation (protein)
chain: MASESETLNPSARIMTFYPTMEEFRNFSRYIAYIESQGAHRAGLAKVVPPKEWKPRASYDDIDDLVIPAPIQQLVTGQSGLFTQYNIQKKAMTVREFRKIANSDKYCTPRYSEFEELERKYWKNLTFNPPIYGADVNGTLYEKHVDEWNIGRLRTILDLVEKESGITIEGVNTPYLYFGMWKTSFAWHTEDMDLYSINYLHFGEPKSWYSVPPEHGKRLERLAKGFFPGSAQSCEAFLRHKMTLISPLMLKKYGIPFDKVTQEAGEFMITFPYGYHAGFNHGFNCAESTNFATRRWIEYGKQAVLCSCRKDMVKISMDVFVRKFQPERYKLWKAGKDNTVIDHTLPTPEAAEFLKESELPPRAGNEEECPEEDMEGVEDGEEGDLKTSLAKHRIGTKRHRVCLEIPQEVSQSELFPKEDLSSEQYEMTECPAALAPVRPTHSSVRQVEDGLTFPDYSDSTEVKFEELKNVKLEEEDEEEEQAAAALDLSVNPASVGGRLVFSGSKKKSSSSLGSGSSRDSISSVSETSEPLSCRAQGQTGVLTVHSYAKGDGRVTVGEPCTRKKGSAARSFSERELAEVADEYMFSLEENKKSKGRRQPLSKLPRHHPLVLQECVSDDETSEQLTPEEEAEETEAWAKPLSQLWQNRPPNFEAEKEFNETMAQQAPHCAVCMIFQTYHQVEFGGFNQNCGNASDLAPQKQRTKPLIPEMCFTSTGCSTDINLSTPYLEEDGTSILVSCKKCSVRVHASCYGVPPAKASEDWMCSRCSANALEEDCCLCSLRGGALQRANDDRWVHVSCAVAILEARFVNIAERSPVDVSKIPLPRFKLKCIFCKKRRKRTAGCCVQCSHGRCPTAFHVSCAQAAGVMMQPDDWPFVVFITCFRHKIPNLERAKGALQSITAGQKVISKHKNGRFYQCEVVRLTTETFYEVNFDDGSFSDNLYPEDIVSQDCLQFGPPAEGEVVQVRWTDGQVYGAKFVASHPIQMYQVEFEDGSQLVVKRDDVYTLDEELPKRVKSRLSVASDMRFNEIFTEKEVKQEKKRQRVINSRYREDYIEPALYRAIME
B2: 2A-E558Q: KDM4A mutation (protein)
chain: B1 chain with V524D, E558Q
B3: 2A-V743I*: KDM4A mutation (protein, UniProt O75164 2-1064, looked up, variant V743I)
Lysine-specific demethylase 4A: ASESETLNPSARIMTFYPTMEEFRNFSRYIAYIESQGAHRAGLAKVVPPKEWKPRASYDDIDDLVIPAPIQQLVTGQSGLFTQYNIQKKAMTVREFRKIANSDKYCTPRYSEFEELERKYWKNLTFNPPIYGADVNGTLYEKHVDEWNIGRLRTILDLVEKESGITIEGVNTPYLYFGMWKTSFAWHTEDMDLYSINYLHFGEPKSWYSVPPEHGKRLERLAKGFFPGSAQSCEAFLRHKMTLISPLMLKKYGIPFDKVTQEAGEFMITFPYGYHAGFNHGFNCAESTNFATRRWIEYGKQAVLCSCRKDMVKISMDVFVRKFQPERYKLWKAGKDNTVIDHTLPTPEAAEFLKESELPPRAGNEEECPEEDMEGVEDGEEGDLKTSLAKHRIGTKRHRVCLEIPQEVSQSELFPKEDLSSEQYEMTECPAALAPVRPTHSSVRQVEDGLTFPDYSDSTEVKFEELKNVKLEEEDEEEEQAAAALDLSVNPASVGGRLVFSGSKKKSSSSLGSGSSRDSISSDSETSEPLSCRAQGQTGVLTVHSYAKGDGRVTVGEPCTRKKGSAARSFSERELAEVADEYMFSLEENKKSKGRRQPLSKLPRHHPLVLQECVSDDETSEQLTPEEEAEETEAWAKPLSQLWQNRPPNFEAEKEFNETMAQQAPHCAVCMIFQTYHQVEFGGFNQNCGNASDLAPQKQRTKPLIPEMCFTSTGCSTDINLSTPYLEEDGTSILVSCKKCSIRVHASCYGVPPAKASEDWMCSRCSANALEEDCCLCSLRGGALQRANDDRWVHVSCAVAILEARFVNIAERSPVDVSKIPLPRFKLKCIFCKKRRKRTAGCCVQCSHGRCPTAFHVSCAQAAGVMMQPDDWPFVVFITCFRHKIPNLERAKGALQSITAGQKVISKHKNGRFYQCEVVRLTTETFYEVNFDDGSFSDNLYPEDIVSQDCLQFGPPAEGEVVQVRWTDGQVYGAKFVASHPIQMYQVEFEDGSQLVVKRDDVYTLDEELPKRVKSRLSVASDMRFNEIFTEKEVKQEKKRQRVINSRYREDYIEPALYRAIME
B4: 2A-R765Q: KDM4A mutation (protein)
chain: B1 chain with V524D, R765Q
B5: 2A-R825C*: KDM4A mutation (protein, UniProt O75164 2-1064, looked up, variant R825C)
Lysine-specific demethylase 4A: B3 Lysine-specific demethylase 4A with I742V, R824C
B6: 2A-R825H*: KDM4A mutation (protein, UniProt O75164 2-1064, looked up, variant R825H)
Lysine-specific demethylase 4A: B3 Lysine-specific demethylase 4A with I742V, R824H
B7: 2A-V919M: KDM4A mutation (protein)
chain: B1 chain with V524D, V919M
B8: 2A-V1003A: KDM4A mutation (protein)
chain: B1 chain with V524D, V1003A
B9: 2A-D1023Y: KDM4A mutation (protein)
chain: B1 chain with V524D, D1023Y

assay: Subcellular localization of KDM4 variants (immunofluorescence); format: cell-based; settings: KDM4A mutations; % nuclear

Molecule	Localization
B1	+++ (+++ indicates >80% nuclear)
B2	+ (+ indicates 40-59% nuclear)
B3	+++ (+++ indicates >80% nuclear)
B4	−− (−− indicates 0 to 19% nuclear)
B5	+++ (+++ indicates >80% nuclear)
B6	++ (++ indicates 60-79% nuclear)
B7	+ (+ indicates 40-59% nuclear)
B8	++ (++ indicates 60-79% nuclear)
B9	++ (++ indicates 60-79% nuclear)

Changes are numbered by the printed parent chain. Names and notes keep the numbering of the source.
